Results: publication PMC7408393
No constants are given. Whether binding was seen depends on the method and setting. Binding seen in cells or lysates may run through a third protein. Some entries that bind do so weakly or less than the wild type.

The chains behind the UniProt entries cited, without tags or fusion partners. Residues count along the entry.
UniProt P19338: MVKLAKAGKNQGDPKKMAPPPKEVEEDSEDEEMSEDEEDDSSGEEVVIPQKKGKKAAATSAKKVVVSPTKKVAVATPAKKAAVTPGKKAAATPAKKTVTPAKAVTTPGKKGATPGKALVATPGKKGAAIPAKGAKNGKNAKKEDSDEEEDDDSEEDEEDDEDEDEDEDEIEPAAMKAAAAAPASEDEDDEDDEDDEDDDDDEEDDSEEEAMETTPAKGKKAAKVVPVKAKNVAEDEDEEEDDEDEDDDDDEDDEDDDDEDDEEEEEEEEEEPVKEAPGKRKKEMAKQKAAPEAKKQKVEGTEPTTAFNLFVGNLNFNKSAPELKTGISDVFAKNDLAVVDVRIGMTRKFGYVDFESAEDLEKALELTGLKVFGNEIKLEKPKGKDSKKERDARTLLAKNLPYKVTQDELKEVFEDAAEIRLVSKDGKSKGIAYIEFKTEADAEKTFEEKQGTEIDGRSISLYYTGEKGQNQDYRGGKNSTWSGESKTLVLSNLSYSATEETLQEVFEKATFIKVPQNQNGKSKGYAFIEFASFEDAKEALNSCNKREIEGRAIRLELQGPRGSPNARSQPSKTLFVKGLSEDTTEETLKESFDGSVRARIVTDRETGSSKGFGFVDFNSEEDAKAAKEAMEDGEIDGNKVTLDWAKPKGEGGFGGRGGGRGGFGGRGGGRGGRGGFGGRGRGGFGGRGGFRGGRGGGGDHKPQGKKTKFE
UniProt P08581, residues 25-1390: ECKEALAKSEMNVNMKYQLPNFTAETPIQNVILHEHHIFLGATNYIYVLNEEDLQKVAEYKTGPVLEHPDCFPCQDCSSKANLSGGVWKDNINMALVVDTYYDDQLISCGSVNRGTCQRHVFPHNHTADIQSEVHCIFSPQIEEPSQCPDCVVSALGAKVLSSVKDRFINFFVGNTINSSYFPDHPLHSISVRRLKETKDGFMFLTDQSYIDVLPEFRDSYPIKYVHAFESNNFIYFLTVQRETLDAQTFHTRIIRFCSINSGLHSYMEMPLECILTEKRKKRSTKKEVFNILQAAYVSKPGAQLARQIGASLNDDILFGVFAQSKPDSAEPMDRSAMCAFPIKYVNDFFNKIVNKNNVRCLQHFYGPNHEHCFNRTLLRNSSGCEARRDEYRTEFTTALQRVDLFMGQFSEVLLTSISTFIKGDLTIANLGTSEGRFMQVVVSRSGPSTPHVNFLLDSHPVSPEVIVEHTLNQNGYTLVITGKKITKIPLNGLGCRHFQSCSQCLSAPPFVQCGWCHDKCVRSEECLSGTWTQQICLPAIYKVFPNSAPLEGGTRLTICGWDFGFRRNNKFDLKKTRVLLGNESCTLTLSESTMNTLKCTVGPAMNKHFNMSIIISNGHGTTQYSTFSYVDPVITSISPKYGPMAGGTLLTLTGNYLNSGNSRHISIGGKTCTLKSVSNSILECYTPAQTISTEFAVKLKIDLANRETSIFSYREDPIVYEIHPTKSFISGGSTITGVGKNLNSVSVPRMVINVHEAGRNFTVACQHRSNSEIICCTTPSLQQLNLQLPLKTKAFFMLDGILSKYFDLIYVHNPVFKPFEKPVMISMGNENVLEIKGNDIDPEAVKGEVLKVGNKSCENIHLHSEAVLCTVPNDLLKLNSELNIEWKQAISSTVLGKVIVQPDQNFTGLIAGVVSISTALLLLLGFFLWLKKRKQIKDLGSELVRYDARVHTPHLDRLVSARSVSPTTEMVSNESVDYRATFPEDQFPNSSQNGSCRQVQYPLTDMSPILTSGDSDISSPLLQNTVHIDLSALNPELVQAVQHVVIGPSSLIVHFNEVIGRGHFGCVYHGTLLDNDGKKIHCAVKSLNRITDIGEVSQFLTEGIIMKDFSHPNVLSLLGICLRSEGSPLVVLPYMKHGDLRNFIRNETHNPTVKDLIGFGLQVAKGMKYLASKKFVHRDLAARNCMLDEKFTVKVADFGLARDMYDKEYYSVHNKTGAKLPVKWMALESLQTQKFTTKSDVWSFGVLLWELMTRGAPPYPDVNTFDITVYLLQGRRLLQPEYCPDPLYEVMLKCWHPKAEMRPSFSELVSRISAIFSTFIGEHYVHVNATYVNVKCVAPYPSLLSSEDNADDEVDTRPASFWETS

Biological target: nucleolin (human (endogenous in MKN-45)) (UniProt P19338)
Test: co-IP; anti-nucleolin antibody coupled by EDC to magnetic particles, incubated with MKN-45 cell lysate overnight at 4 °C, washed twice with 1x PBS, Western blot; bare magnetic particles as control

binding: binds
Substance: c-Met (from UniProt P08581 25-1390) (receptor)
